What all share (assay): co-IP; anti-Flag antibody (M2) on Dynabeads Protein G, yeast lysates, 2 h at 4°C; 50 mM HEPES pH 7.5, 150 mM NaCl, 1 mM EDTA, NP-40; cells grown in YPL or switched to SL with or without methionine; WT or xrn1Δ cells; RNase A (25 ng/μL) or NMPs added to the lysate where indicated; HA blot
The target of assay [1] is T1, Gtr1-Flag (S. cerevisiae) (UniProt Q00582).
T1 sequence: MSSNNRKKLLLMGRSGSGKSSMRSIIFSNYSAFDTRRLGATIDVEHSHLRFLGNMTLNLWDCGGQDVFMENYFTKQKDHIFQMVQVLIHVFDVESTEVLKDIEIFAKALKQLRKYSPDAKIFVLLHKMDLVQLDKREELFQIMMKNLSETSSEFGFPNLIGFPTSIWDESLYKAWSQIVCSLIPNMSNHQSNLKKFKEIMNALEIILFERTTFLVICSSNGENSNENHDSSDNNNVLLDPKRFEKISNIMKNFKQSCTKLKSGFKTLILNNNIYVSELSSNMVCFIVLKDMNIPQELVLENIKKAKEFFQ

Sequences of proteins named here, by UniProt entry; tags and fusion partners are left off. A change or cut given only in a name is not applied to a line headed by its entry.
UniProt P22147: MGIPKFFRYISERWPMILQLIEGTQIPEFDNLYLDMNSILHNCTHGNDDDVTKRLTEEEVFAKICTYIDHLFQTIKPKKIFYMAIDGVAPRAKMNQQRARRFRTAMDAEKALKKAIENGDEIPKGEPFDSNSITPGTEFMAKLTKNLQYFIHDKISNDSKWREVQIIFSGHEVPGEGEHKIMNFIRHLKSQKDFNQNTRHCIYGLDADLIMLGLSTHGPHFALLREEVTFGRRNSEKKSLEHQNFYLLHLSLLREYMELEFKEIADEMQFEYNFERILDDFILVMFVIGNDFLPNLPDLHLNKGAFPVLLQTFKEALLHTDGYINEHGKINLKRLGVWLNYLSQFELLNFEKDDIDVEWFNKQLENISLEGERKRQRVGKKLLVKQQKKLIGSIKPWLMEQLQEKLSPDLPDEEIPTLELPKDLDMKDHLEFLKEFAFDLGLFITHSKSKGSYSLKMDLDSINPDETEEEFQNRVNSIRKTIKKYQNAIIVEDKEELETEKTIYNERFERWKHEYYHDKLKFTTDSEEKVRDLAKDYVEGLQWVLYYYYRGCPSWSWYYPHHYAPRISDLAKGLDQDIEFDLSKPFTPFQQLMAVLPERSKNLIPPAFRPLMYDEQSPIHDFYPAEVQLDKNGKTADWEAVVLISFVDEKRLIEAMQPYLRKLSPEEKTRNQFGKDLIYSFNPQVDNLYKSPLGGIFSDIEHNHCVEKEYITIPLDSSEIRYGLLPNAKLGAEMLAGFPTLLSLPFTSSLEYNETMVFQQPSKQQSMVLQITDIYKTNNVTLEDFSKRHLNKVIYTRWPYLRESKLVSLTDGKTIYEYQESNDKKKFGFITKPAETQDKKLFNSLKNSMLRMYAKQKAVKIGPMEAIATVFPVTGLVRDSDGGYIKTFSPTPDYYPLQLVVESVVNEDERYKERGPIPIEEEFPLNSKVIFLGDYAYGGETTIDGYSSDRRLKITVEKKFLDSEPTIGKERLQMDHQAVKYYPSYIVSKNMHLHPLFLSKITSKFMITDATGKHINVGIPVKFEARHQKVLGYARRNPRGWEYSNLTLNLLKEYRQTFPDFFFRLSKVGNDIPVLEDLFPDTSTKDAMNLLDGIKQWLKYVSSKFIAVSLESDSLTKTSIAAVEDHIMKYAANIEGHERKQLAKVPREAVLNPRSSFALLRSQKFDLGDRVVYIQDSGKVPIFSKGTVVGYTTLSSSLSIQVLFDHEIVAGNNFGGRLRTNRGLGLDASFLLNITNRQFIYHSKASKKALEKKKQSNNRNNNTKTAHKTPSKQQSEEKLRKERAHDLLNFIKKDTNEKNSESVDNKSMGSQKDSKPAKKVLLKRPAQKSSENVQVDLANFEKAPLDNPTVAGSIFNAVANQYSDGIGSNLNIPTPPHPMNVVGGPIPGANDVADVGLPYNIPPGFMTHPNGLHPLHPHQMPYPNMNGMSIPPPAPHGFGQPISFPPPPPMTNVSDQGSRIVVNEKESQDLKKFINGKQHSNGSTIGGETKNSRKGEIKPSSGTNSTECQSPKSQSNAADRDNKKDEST
UniProt P38873: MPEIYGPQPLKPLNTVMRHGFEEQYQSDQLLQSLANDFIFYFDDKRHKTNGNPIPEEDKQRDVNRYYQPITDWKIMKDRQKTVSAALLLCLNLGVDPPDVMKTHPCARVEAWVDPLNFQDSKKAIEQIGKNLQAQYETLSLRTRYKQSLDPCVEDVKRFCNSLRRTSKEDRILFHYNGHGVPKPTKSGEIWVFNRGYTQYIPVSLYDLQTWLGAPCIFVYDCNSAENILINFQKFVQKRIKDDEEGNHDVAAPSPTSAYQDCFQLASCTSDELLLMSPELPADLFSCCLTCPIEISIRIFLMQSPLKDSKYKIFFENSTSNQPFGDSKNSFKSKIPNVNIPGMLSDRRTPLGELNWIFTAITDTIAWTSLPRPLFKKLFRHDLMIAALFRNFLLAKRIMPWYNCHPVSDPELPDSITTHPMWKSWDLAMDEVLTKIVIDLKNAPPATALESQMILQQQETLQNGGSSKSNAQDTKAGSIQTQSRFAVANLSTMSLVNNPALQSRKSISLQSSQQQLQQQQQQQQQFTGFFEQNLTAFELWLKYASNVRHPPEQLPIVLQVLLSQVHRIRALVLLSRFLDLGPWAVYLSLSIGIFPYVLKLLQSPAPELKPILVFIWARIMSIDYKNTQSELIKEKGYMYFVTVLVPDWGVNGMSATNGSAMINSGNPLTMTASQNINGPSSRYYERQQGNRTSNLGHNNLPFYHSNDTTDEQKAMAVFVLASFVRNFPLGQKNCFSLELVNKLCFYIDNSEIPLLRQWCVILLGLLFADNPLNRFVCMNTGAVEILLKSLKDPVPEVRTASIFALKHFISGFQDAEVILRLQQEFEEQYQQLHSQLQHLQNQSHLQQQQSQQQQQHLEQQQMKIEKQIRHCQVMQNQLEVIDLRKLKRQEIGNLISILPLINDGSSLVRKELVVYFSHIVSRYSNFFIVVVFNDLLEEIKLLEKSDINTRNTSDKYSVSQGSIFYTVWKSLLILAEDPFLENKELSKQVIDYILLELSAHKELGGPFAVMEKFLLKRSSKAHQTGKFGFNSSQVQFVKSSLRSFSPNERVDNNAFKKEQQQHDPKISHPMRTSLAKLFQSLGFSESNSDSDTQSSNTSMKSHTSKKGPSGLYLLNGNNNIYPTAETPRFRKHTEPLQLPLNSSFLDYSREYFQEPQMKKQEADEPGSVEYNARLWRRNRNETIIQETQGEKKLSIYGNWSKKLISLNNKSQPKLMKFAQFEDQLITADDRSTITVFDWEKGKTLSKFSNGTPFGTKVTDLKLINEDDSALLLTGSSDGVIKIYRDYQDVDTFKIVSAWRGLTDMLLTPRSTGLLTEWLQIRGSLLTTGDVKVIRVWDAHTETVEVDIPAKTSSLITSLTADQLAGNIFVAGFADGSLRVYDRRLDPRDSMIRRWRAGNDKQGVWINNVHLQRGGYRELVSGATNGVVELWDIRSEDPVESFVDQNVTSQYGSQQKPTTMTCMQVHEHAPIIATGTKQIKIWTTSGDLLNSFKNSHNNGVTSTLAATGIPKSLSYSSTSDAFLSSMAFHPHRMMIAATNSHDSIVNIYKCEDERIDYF

Assay [2] concerns the target catalytically dead (D208A) flag-tagged Xrn1 expressed ectopically from a plasmid (S. cerevisiae) (UniProt P22147).
For assay [3], the target named is Flag-tagged Xrn1 (S. cerevisiae) (UniProt P22147).
The target in assay [4] is WT flag-tagged Xrn1 expressed ectopically from a plasmid using the endogenous Xrn1 promoter (S. cerevisiae) (UniProt P22147).

Residue numbers refer to the chain shown, from its start. In names and notes the source's numbering stands. These are yes or no findings as the source states them, for the method shown. In cells and extracts the contact can be indirect. Some entries that bind do so weakly or less than the wild type. Where a sequence is shown, tags or fusion partners need not be part of it.

On to Kog1-HA (from UniProt P38873 1-1557), for which the binding entry in assay [1] is “binds”.

B1: HA-tagged Npr2 (protein, UniProt P39923 1-615)
chain: MLSYFQGFVPIHTIFYSVFHPTEGSKIKYEFPPNNLKNHGINFNTFKNYIIPKPILCHKLITFKYGTYRIVCYPVTINSPIYARNFFSFNFVFVFPYDCETSPYEPAITRLGKMFKVLEEQNQLLSKSERDPVFFDLKVLENSTTTPSTAGPSSTPNPSSNTTPTHPTSEKDTKDMRSSRYSDLIKDLGLPQSAFSIQDLLMRIFQDLNNYSECLIPIDEGNAVDIKIFPLLRPPTTCVSLEDVPLSSVNLKKIIDVNWDPTMMSIVPYIDGLNSIAKISKLSNSDPGLVIECIRHLIYYKCVTLSDIFQFSNIYAPSSLIRNFLTDPLMASDCQSYVTFPEVSKISNLPLNKSLGSGDQDSPSFSVRRKSKSSSIPSNPDSRTTSFSSTSRVSQNSSLNSSFSSIYKDWRQSQTSCSSSNIHVINNRNRFLPTRSCLFDLYRSLSQGQTLKTWYESKYMILKENNIDIRRFITFGLEKRIIYRCYSFPVMINAGSREPKEMTPIITKDLVNNDKLLEKRNHNHLLSATGSRNTAQSGNLKPERPSKVSFEMQRVSSLATGKSTMPKLSDEEEGILEESIRNAETFDKICVLLSKPKLEVESYLNELGEFKVINS
B1: the binding result in assay [2], in assay [3] and in assay [4] was “binds” each time.

B2: HA-tagged Gtr1 (protein, UniProt Q00582 1-310)
chain: T1 sequence
Turning to B2, the binding entry in assay [2], in assay [3] and in assay [4] was “binds” each time.

B3: GDP-locked Gtr1 (S20L) (protein, UniProt Q00582 1-310)
chain: T1 sequence with S20L
With B3, in assay [3], the binding result was “binds”.

For the origin of these results see article doi:10.1101/2023.09.28.559955.
